Test results taken from patent publication US6001359A, “Diagnosis of colon carcinoma using monoclonal antibodies to human influx peptide transporter” (Eli Lilly and Company, priority 1997, dated 1999).

How the values were obtained:
[1] = target: T1, influx peptide transporter (Homo sapiens, UniProt Q12864); assay: [14C]cephalexin uptake by CHO-K1 transfectant Clone 9 (plasmid pPSJ179)
T1 sequence (Q12864 23-832): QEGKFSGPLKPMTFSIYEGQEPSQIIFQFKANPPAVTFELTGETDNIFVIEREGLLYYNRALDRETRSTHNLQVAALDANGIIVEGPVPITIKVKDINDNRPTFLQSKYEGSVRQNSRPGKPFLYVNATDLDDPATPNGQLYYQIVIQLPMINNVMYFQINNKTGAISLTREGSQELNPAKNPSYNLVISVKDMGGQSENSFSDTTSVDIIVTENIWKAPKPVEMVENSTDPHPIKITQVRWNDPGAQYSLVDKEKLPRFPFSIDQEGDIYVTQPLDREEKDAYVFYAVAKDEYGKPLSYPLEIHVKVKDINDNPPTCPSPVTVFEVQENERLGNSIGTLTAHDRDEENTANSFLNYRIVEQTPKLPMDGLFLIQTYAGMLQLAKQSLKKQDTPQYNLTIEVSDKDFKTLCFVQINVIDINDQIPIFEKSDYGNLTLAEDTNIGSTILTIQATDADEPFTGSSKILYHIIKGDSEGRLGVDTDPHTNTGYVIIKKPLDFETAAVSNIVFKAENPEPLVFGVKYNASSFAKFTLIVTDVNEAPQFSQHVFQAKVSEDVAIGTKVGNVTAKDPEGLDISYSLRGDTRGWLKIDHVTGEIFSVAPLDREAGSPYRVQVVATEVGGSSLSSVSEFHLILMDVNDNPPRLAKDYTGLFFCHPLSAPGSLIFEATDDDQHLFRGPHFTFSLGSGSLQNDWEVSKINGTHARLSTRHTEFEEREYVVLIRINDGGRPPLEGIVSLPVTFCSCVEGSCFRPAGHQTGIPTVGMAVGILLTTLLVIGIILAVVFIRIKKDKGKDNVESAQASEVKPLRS

CHO-K1 cells = assay: [14C]cephalexin uptake by control CHO-K1 cells (plasmid pRc/RSV)

CC1=C(C(=O)O)N2C(=O)[C@@H](NC(=O)[C@H](N)c3ccccc3)[C@H]2SC1 [cephalexin] was tested, and the “[14C]-Cephalexin Uptake in presence of unlabelled cephalexin” value ([1]; Clone 9, 1 mM [14C]cephalexin + 25 mM unlabelled cephalexin) was 0.35 ± 0.09 nmol/mg total cell protein, the “effect on uptake of 1 mM cephalexin by the transfectant” value ([1]; Clone 9, 15 mM bestatin or 25 mM unlabelled cephalexin) was “inhibited” and the “drug uptake on coincubation, compared with control cells” value ([1]; Clone 9, coincubation with 1 mM [14C]cephalexin) was “decreased drug uptake in the representative transfectant (Clone 9) to the level of the control cells”. The “uptake of [14C]cephalexin by transfectant compared with control” value ([1]; Clone 9 versus control cells, 1 mM [14C]cephalexin) was “significantly higher uptake”, the “[14C]-Cephalexin Uptake in presence of unlabelled cephalexin” value (CHO-K1 cells; Control cells, 1 mM [14C]cephalexin + 25 mM unlabelled cephalexin) was 0.31 ± 0.06 nmol/mg total cell protein and the “[14C]-Cephalexin Uptake” value (CHO-K1 cells; Control cells, 1 mM [14C]cephalexin, 2 hours, 37° C., pH 6.0, no competitor) was 0.55 ± 0.09 nmol/mg total cell protein. The “effect on transport of 1 mM [14C]cephalexin by the control cells” value (CHO-K1 cells; control cells, bestatin or cephalexin) was “not inhibited significantly”.
